These results are taken from article PMC4837450.

Chains of the proteins cited; added tags and fusions are not shown. Lines headed by an entry give the natural chain unless they say otherwise; changes in a name come on top.
UniProt Q8R0W6: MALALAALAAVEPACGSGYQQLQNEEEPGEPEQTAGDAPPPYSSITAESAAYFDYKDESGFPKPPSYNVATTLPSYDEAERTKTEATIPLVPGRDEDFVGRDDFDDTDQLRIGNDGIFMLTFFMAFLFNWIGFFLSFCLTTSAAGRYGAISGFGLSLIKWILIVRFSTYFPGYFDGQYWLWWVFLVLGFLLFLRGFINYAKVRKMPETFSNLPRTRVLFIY
UniProt Q91ZP6: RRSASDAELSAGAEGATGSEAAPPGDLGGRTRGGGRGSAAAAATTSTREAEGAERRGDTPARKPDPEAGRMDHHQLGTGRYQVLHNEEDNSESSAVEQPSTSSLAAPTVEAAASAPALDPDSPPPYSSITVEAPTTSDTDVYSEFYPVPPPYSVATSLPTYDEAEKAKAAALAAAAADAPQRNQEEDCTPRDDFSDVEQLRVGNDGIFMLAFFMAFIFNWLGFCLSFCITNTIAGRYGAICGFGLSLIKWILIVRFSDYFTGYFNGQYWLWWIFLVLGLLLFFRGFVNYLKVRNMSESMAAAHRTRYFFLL
UniProt Q8C863: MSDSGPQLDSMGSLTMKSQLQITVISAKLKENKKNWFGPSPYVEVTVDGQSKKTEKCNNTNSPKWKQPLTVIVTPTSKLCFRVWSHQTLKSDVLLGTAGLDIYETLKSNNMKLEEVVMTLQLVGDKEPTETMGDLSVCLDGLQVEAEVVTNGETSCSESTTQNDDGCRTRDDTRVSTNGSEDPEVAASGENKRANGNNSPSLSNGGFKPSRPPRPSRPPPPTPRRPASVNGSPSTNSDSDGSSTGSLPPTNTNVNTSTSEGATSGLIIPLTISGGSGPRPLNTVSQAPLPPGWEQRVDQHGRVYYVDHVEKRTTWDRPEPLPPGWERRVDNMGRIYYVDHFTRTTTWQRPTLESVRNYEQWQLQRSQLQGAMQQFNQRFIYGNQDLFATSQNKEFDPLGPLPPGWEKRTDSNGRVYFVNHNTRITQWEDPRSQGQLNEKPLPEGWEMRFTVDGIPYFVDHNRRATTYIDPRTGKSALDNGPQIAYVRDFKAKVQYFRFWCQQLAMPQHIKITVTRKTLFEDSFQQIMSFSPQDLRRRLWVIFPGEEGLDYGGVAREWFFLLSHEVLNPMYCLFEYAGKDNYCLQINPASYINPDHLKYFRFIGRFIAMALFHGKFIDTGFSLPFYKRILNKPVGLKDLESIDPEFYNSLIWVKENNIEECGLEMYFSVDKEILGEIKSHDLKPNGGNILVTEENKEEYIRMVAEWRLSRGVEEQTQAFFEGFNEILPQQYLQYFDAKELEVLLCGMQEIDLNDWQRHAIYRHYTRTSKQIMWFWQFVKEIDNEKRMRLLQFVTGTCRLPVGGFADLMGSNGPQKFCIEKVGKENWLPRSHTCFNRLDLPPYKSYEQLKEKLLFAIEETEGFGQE
UniProt Q8CFI0: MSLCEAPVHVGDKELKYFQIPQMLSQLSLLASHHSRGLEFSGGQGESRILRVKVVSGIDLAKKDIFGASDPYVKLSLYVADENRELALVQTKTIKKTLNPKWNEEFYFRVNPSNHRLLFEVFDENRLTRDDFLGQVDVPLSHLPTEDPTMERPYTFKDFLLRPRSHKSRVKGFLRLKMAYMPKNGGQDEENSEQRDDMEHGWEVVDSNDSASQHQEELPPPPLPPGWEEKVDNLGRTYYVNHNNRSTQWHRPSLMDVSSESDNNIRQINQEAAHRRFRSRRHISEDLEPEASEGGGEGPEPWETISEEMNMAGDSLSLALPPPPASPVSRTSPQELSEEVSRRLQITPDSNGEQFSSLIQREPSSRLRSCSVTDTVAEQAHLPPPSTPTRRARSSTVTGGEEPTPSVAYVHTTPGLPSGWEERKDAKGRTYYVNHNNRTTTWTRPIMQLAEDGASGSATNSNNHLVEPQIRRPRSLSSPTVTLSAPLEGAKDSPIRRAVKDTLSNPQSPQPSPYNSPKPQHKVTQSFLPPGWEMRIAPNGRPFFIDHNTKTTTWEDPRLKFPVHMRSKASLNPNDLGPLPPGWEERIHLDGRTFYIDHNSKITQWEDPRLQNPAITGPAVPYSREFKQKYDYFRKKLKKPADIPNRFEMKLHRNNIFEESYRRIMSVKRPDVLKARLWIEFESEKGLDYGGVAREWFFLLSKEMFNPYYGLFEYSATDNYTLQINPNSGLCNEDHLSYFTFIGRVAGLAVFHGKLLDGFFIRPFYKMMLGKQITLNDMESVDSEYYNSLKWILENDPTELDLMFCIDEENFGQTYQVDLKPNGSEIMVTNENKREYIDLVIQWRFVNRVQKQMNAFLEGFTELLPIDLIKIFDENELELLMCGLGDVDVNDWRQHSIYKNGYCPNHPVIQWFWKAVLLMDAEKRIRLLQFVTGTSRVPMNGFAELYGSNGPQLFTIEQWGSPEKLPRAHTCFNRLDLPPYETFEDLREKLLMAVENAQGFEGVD

No constants are given. Whether binding was seen depends on the method and setting. In cells and extracts the contact can be indirect. A result given as binding can be weak or reduced; the word gives no strength.

For assay [1], the target named is Ndfip1 cytosolic domain GST fusion protein (UniProt Q8R0W6). In words: pull-down; 10 ug recombinant GST-Ndfip1 or GST-Ndfip2 cytoplasmic domain incubated with lysate (1% NP40, 150 mM NaCl, 50 mM TrisHCl, precleared with GST) of WT or Ndfip1/Ndfip2 DKO CD4+ T cells restimulated 4 h with PMA/ionomycin; collected on glutathione sepharose beads; immunoblot for Itch and Nedd4-2; only the target purified. On the technique in general: In western blotting, separated proteins are transferred to a membrane and probed.

The target of assay [2] is Ndfip2 cytosolic domain GST fusion protein (UniProt Q91ZP6). The description is as above.

Take “Itch (from UniProt Q8C863 1-864) (enzyme)”: the binding result in assay [1] and in assay [2] was “binds” throughout.
Turning to “Nedd4-2 (from UniProt Q8CFI0 1-1004) (enzyme)”, the binding entry in assay [1] and in assay [2] was “binds” throughout.
